{"source": "PubChem BioAssay AID504467", "about": "(National Center for Advancing Translational Sciences (NCATS), 2011)", "note": "About 7,700 (2.3%) of roughly 330,000 compounds were called active. Inconclusive results, whose numbers are uncertain, are shown with a selection of clear calls. The call rests on the fitted dose curve; in most records, active means well fitted inhibition curve with a large enough effect; inconclusive means small, poorly fitted or top-dose-only effect, or effect the other way; inactive means flat fitted curve, though single readings scatter. A potency beside an inconclusive call is a rough fit, not a confirmed value. Potency means the concentration at half of the fitted maximal effect.", "data": [{"assay": "qHTS screen for small molecules that inhibit ELG1-dependent DNA repair in human embryonic kidney (HEK293T) cells expressing luciferase-tagged ELG1; further: nearly all actives have a fitted effect of over 55% in size", "conditions": "HEK293T ELG1-luciferase reporter, luminescence, 16 h, DNA damage induced by 5-fluorouridine; series mostly up to 46.1 µM", "how_it_was_run": "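5-Fluorouridine DNA damage + compound/DMSO, 2,000 cells/well, 16 h, 37 °C/5% CO2. ONE-Glo, 30 min RT, luminescence. Readout = decrease in reporter signal.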", "values": [{"smiles": "CCN(CC(=O)NC(C)C)C(=O)c1ccc(S(=O)(=O)N(C)c2ccccc2OC)cc1", "Potency": "inactive"}, {"smiles": "O=C(c1cc(C(=O)N2CCN(c3ccc(F)cc3)CC2)cc([N+](=O)[O-])c1)N1CCN(c2ccc(F)cc2)CC1", "Potency": "active: 11.2 µM"}, {"smiles": "COC(=O)c1cc(S(=O)(=O)N2CCC(c3cc(OC)ccc3OC)C2)c[nH]1", "note": "(configuration not stated)", "Potency": "inconclusive: 5.17 µM [inhibitor, partial curve, poor fit]"}, {"smiles": "CN(C)S(=O)(=O)c1cccc(NC(=O)COc2ccccc2C(=O)NCc2ccccc2)c1", "Potency": "inconclusive: 29.1 µM [inhibitor, single point]"}, {"smiles": "FC(F)Sc1ccc(NC(=S)NC2CCCCC2)cc1", "Potency": "inconclusive: 3.66 µM [activator, full curve]"}, {"smiles": "COc1ccccc1OCC(=O)N/N=C/C=C/c1ccc([N+](=O)[O-])o1", "Potency": "inconclusive: 29.1 µM [inhibitor, single point]"}, {"smiles": "COc1ccc(C(=O)Nc2ccc(F)cc2F)cc1OC", "Potency": "inconclusive: 16.4 µM [activator, single point]"}, {"smiles": "O=C(CCC1CCCCC1)Nc1nnc(C(F)(F)F)s1", "Potency": "inconclusive: 20.6 µM [inhibitor, single point]"}, {"smiles": "CCOc1ccc(/C=C/C(=O)c2c(O)cc(C)oc2=O)cc1", "Potency": "inconclusive: 18.3 µM [activator, partial curve]"}, {"smiles": "C/C(=N\\NC(=S)NC1CCCCC1)c1c(F)cccc1F", "Potency": "inconclusive: 16.4 µM [inhibitor, single point]"}, {"smiles": "COc1ccc(NC(=O)Nc2cccc3c2O[C@H](CN(C)S(C)(=O)=O)[C@@H](C)CN([C@H](C)CO)C3=O)cc1", "Potency": "inconclusive: 5.17 µM [activator, partial curve, poor fit]"}, {"smiles": "CC(C)c1nc(SCC(=O)Nc2ccc(N(C)C)cc2)c2ccccc2n1", "Potency": "inconclusive: 29.1 µM [inhibitor, single point]"}, {"smiles": "Cc1ccc(NC(=O)CSCC(=O)N2CCCc3ccccc32)cc1", "Potency": "inconclusive: 23.1 µM [activator, single point]"}, {"smiles": "Cc1nc(N)sc1-c1csc(Nc2ccccc2)n1", "Potency": "inconclusive: 1.03 µM [activator, full curve, poor fit]"}, {"smiles": "O=C(Nc1ccccc1)Nc1cc([N+](=O)[O-])ccc1F", "Potency": "inactive"}, {"smiles": "Cc1cc2c(cc(C(=O)OC(C(=O)NCc3ccco3)C(C)C)n2C)o1", "note": "(configuration not stated)", "Potency": "active: 23.1 µM"}, {"smiles": "CC1CN(C(=O)Cn2c(=O)oc3ccccc32)CC(C)O1", "note": "(configuration not stated)", "Potency": "inactive"}, {"smiles": "N#Cc1c(SCC(N)=O)nc2c(c1-c1ccc(O)cc1)CCCC2", "Potency": "inconclusive: 29.1 µM [inhibitor, partial curve, poor fit]"}, {"smiles": "Cn1ncc(Br)c1C(=O)OCC(=O)Nc1nc(-c2ccccc2)cs1", "Potency": "inconclusive: 32.6 µM [inhibitor, single point]"}, {"smiles": "O=C(CN1C(=O)c2ccccc2S1(=O)=O)NC1CC2CCC1C2", "note": "(configuration not stated)", "Potency": "inconclusive: 29.1 µM [activator, partial curve, poor fit]"}, {"smiles": "COc1ccc(/C=N/NC(=O)c2ccn[nH]2)cc1COc1ccc([N+](=O)[O-])c(C)c1", "Potency": "inconclusive: 29.1 µM [inhibitor, single point]"}, {"smiles": "COc1ccc(NC(=O)Cc2coc3cc(C)c(C(C)C)cc23)cc1S(=O)(=O)N1CCOCC1", "Potency": "inactive"}, {"smiles": "COCC(C)NC(=O)NC(=O)c1ccc(Cl)cc1", "note": "(configuration not stated)", "Potency": "inconclusive: 18.4 µM [activator, partial curve, poor fit]"}, {"smiles": "CCOc1ccc(/C=N/Nc2cc(N3CCOCC3)nc(C)n2)c(O)c1", "Potency": "inactive"}, {"smiles": "CN1CCN(C(=O)C2=C[C@H](c3csc4ccccc34)C[C@H](OCCCCO)O2)CC1", "Potency": "inactive"}, {"smiles": "COc1cccc(NC(=S)NCCc2ccccn2)c1", "Potency": "inconclusive: 16.4 µM [activator, partial curve, poor fit]"}, {"smiles": "COc1ccc(CNS(=O)(=O)c2c(C(=O)N3CCCCCC3)c(C)n(C)c2C)cc1", "Potency": "inactive"}, {"smiles": "CCCCN(CCCNC(=O)C1CCN(S(=O)(=O)N2CCOCC2)CC1)c1ccccc1", "Potency": "inconclusive: 23.1 µM [inhibitor, partial curve]"}, {"smiles": "COc1cc(C2NC(=S)NC(O)(C(F)(F)F)C2C(=O)c2cccs2)cc(OC)c1O", "note": "(configuration not stated)", "Potency": "inconclusive: 20.6 µM [activator, partial curve]"}, {"smiles": "Cc1ccc([C@@H]2[C@@H]3C(=O)N(c4ccccc4)C(=O)[C@@H]3[C@]3(C)C(=O)N(CC4CC4)CC(=O)N23)o1", "Potency": "inactive"}, {"smiles": "COc1ccc2c(c1)CCc1c-2n[nH]c1C(=O)NCCC(C)C", "Potency": "inconclusive: 2.31 µM [activator, partial curve]"}, {"smiles": "CC(=O)N1c2ccc(S(=O)(=O)N3CCC(C(=O)Nc4ccc(F)cc4)CC3)cc2CC1C", "note": "(configuration not stated)", "Potency": "inconclusive: 10.3 µM [inhibitor, partial curve]"}, {"smiles": "COc1ccccc1COC(=O)c1ccc(S(=O)(=O)N2CCOCC2)cc1", "Potency": "inactive"}, {"smiles": "COCCNC(=O)c1cc(-c2ccccc2)n(CC2CC(c3ccc(OC)cc3)=NO2)n1", "note": "(configuration not stated)", "Potency": "inconclusive: 10 µM [inhibitor, single point]"}, {"smiles": "COc1ccc2oc(C(=O)OCC(=O)N(Cc3ccccc3)C(C)C)c(C)c2c1", "Potency": "inconclusive: 29.1 µM [inhibitor, single point]"}, {"smiles": "CCN(CC)S(=O)(=O)c1ccc(C(C)NCC(=O)Nc2ccccc2C(=O)NC2CC2)cc1", "note": "(configuration not stated)", "Potency": "inconclusive: 29.1 µM [inhibitor, single point]"}, {"smiles": "CC(C)C[C@H]1CN=C(N(C)C)N1CC1CCCCCC1", "Potency": "inactive"}, {"smiles": "Cc1c(OC(C)C(=O)NCC2CCC(C(=O)O)CC2)ccc2c1oc(=O)c1ccccc12", "note": "(configuration not stated)", "Potency": "inconclusive: 0.0058 µM [activator, full curve, poor fit]"}, {"smiles": "Cc1ccc(NC(=O)CSc2nc3ccccc3c(=O)[nH]2)cc1[N+](=O)[O-]", "Potency": "inactive"}, {"smiles": "Clc1ccc(OCCCn2cncn2)cc1Cl", "Potency": "inconclusive: 16.4 µM [inhibitor, single point]"}, {"smiles": "Cc1ccc(/C=C2\\CCC3=C2OC(N)=C(C#N)C3c2ccc(C)cc2)cc1", "note": "(configuration not stated)", "Potency": "inconclusive: 0.92 µM [activator, full curve, poor fit]"}, {"smiles": "Cc1cnc(NC(=O)c2ccc(OCC3CCCO3)cc2)s1", "note": "(configuration not stated)", "Potency": "inconclusive: 0.92 µM [activator, partial curve]"}, {"smiles": "CN(C)c1nc(NC(C)(C)C)nc(SCC(=O)Nc2ccccc2)n1", "Potency": "inconclusive: 16.4 µM [inhibitor, partial curve, poor fit]"}, {"smiles": "COc1ccc(C(C(=O)NC2CCCCC2)N(C(=O)c2ccccn2)c2cccnc2)cc1", "note": "(configuration not stated)", "Potency": "inactive"}, {"smiles": "CN(C(=O)CSc1nnc(-c2ccc3c(c2)OCO3)o1)C1CCS(=O)(=O)C1", "note": "(configuration not stated)", "Potency": "inactive"}, {"smiles": "O=C(COc1ccccc1)NNC1=NS(=O)(=O)c2ccccc21", "Potency": "inactive"}, {"smiles": "CCOc1nc(C)ccc1-c1noc(-c2ccco2)n1", "Potency": "inactive"}, {"smiles": "Cc1ccc(S(=O)(=O)N(C)c2ccc(C(=O)Nc3cccnc3)cc2)cc1", "Potency": "inconclusive: 18.3 µM [inhibitor, partial curve]"}, {"smiles": "COc1ccc(NC(=O)c2cc3ccccc3oc2=O)c(OC)c1", "Potency": "inconclusive: 9.2 µM [activator, partial curve]"}, {"smiles": "CCN(CC)S(=O)(=O)c1ccc(O)c(NC(=O)c2cc(-c3cc(OC)c(OC)c(OC)c3)nc3ccccc23)c1", "Potency": "active: 16.4 µM"}, {"smiles": "Cc1ccc(OCCCCN2CCc3ccccc3C2)c(C)c1", "Potency": "inconclusive: 1.26 µM [inhibitor, single point]"}, {"smiles": "C/C(=N\\OC(=O)c1ccc(F)cc1)c1nccs1", "Potency": "inactive"}, {"smiles": "N#C/C(=C\\c1ccccc1[N+](=O)[O-])c1nc(C2CC2)cs1", "Potency": "inconclusive: 18.4 µM [activator, single point]"}, {"smiles": "CC(C)[C@H](NC(=O)c1ccccc1F)C(=O)Nc1ccc2c(c1)OCO2", "Potency": "inconclusive: 9.2 µM [activator, partial curve, poor fit]"}, {"smiles": "CN(C)c1ccc(NC(=O)CCn2c(=S)oc3ccccc32)cc1", "Potency": "inactive"}, {"smiles": "COCCNc1oc(-c2ccc(Cl)cc2)nc1C#N", "Potency": "inconclusive: 16.4 µM [activator, partial curve]"}, {"smiles": "Cc1[nH]n(-c2ccccc2)c(=O)c1-c1cccc(Cl)c1", "Potency": "inactive"}, {"smiles": "Cc1ccc(C)c(OCc2cc(C(=O)N(C)Cc3nccs3)no2)c1", "Potency": "inconclusive: 29.1 µM [activator, single point]"}, {"smiles": "CCOc1ccccc1-n1nnnc1SCc1nc2ccccc2s1", "Potency": "inconclusive: 9.2 µM [activator, partial curve, poor fit]"}, {"smiles": "Cc1cc(C(=O)NNC(=O)c2cccc([N+](=O)[O-])c2)n[nH]1", "Potency": "inconclusive: 0.13 µM [activator, single point]"}, {"smiles": "O=C(O)c1ccc2c(c1)C(=O)/C(=C\\c1ccco1)C2=O", "Potency": "inactive"}, {"smiles": "O=C(Nc1nnc(Cc2ccc(Cl)cc2)s1)c1cccs1", "Potency": "inconclusive: 16.4 µM [activator, partial curve]"}, {"smiles": "NS(=O)(=O)c1ccc(NC(=O)CSc2nnc(Cc3cccs3)n2-c2ccccc2)cc1", "Potency": "inconclusive: 20.6 µM [inhibitor, partial curve]"}, {"smiles": "CCCNC(=O)COC(=O)c1ccccc1C(=O)c1ccc(Cl)c([N+](=O)[O-])c1", "Potency": "inconclusive: 29.1 µM [inhibitor, single point]"}, {"smiles": "COc1cc(C(=O)OCC(=O)NC23CC4CC(CC(C4)C2)C3)cc(OC)c1OC", "Potency": "inconclusive: 10.3 µM [inhibitor, partial curve, poor fit]"}, {"smiles": "OCC1(CCOc2ccccc2)CCN(Cc2ccccc2OC(F)F)CC1", "Potency": "inactive"}, {"smiles": "Cc1onc(-c2ccccc2)c1C(=O)Nc1ccc(S(=O)(=O)NC(C)(C)C)cc1", "Potency": "inconclusive: 18.3 µM [inhibitor, single point]"}]}]}
